Results are given in words; binding and its absence hold for the method and conditions named. Binding seen in cells or lysates may run through a third protein.
Target: T1, Innexin 2 (Drosophila (endogenous in ovary)) (UniProt Q9V427)
T1 sequence: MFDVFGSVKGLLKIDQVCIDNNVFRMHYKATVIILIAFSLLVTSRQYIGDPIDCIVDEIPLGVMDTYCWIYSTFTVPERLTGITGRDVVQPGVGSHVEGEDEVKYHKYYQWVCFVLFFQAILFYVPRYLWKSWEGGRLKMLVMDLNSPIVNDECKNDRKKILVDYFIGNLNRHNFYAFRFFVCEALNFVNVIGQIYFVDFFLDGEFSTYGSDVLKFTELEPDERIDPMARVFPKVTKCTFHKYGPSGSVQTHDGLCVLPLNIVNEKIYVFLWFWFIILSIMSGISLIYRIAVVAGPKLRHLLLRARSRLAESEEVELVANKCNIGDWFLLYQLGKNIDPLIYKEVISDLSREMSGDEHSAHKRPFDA
Assay: proximity ligation; fixed (4% PFA) whole-mount Drosophila ovaries; primary antibodies against the two endogenous proteins, goat anti-guinea pig IgG conjugated with Plus oligonucleotide (Duolink); punctate signals counted in single confocal slices

- binding: no binding
Substance: α Tubulin (Drosophila (endogenous in ovary))

— article PMC8496311
